Experimental findings from publication PMC9529944, “Molecular asymmetry of a photosynthetic supercomplex from green sulfur bacteria” (Nature Communications, 2022) are described below.

The chains behind the UniProt entries cited, without tags or fusion partners. Where a name states a change or a piece, a line headed by the entry shows the natural chain unless it says otherwise.
UniProt Q8KDI3: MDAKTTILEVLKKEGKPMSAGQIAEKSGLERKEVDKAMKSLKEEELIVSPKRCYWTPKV
UniProt Q8KG87: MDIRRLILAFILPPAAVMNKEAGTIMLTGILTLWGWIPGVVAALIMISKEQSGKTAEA

Holding throughout (experiment): cryo-EM structure; single-particle cryo-EM of the native supercomplex extracted with DDM from C. tepidum membranes; RC-FMO2 at 3.08 Å (local 2.92 and 3.06 Å), RC-FMO1 at 3.49 Å; 20 mM Tris-Cl pH 8.0, 200 mM NaCl, 0.17 mM DDM; both purified
In assay [1] the target is T1, PscC (cytochrome c subunit) (Chlorobaculum tepidum (endogenous in C. tepidum TLS, DSM 12025)) (UniProt O07091).
T1 sequence: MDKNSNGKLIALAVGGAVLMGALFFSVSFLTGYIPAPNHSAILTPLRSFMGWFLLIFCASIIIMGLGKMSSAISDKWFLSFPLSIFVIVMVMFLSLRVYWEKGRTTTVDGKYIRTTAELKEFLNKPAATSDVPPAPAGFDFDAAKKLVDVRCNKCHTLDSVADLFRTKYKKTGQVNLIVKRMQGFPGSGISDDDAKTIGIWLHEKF

For assay [2], the target named is T2, Fenna-Matthews-Olson (FMO) complex (Chlorobaculum tepidum (endogenous in C. tepidum TLS, DSM 12025)) (UniProt Q46393).
T2 sequence: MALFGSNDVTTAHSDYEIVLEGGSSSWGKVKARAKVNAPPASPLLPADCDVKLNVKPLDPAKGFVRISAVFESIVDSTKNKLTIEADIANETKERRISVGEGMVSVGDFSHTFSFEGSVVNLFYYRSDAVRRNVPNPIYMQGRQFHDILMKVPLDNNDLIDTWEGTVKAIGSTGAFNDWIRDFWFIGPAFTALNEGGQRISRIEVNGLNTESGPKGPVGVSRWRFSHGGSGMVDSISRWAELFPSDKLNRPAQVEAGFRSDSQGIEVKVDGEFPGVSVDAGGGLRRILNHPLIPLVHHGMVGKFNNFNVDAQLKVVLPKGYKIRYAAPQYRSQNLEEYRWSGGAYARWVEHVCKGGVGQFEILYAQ

For assay [3], the target named is T3, PscB (Chlorobaculum tepidum (endogenous in C. tepidum TLS, DSM 12025)) (UniProt Q8KAY1).
T3 sequence: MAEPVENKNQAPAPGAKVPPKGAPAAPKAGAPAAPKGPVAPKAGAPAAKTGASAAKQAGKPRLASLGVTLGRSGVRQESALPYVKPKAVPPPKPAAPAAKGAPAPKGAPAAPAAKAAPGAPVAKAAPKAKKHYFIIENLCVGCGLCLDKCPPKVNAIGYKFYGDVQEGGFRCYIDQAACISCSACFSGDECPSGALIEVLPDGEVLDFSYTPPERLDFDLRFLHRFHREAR

Assay [4] concerns the target PscA subunit (reaction center core protein) (Chlorobaculum tepidum (endogenous in C. tepidum TLS, DSM 12025)).

No constants are given. Whether binding was seen depends on the method and setting. Binding can be weak; no strength is given.

Consider PscE (from UniProt Q8KDI3), for which the binding entry in assay [1] and in assay [2] was “binds” in each case.

As for PscF (from UniProt Q8KG87), the binding result in assay [3] and in assay [2] was “binds” throughout.

B1: Fenna-Matthews-Olson (FMO) complex (natural protein, UniProt Q46393 1-366, looked up)
chain: MALFGSNDVTTAHSDYEIVLEGGSSSWGKVKARAKVNAPPASPLLPADCDVKLNVKPLDPAKGFVRISAVFESIVDSTKNKLTIEADIANETKERRISVGEGMVSVGDFSHTFSFEGSVVNLFYYRSDAVRRNVPNPIYMQGRQFHDILMKVPLDNNDLIDTWEGTVKAIGSTGAFNDWIRDFWFIGPAFTALNEGGQRISRIEVNGLNTESGPKGPVGVSRWRFSHGGSGMVDSISRWAELFPSDKLNRPAQVEAGFRSDSQGIEVKVDGEFPGVSVDAGGGLRRILNHPLIPLVHHGMVGKFNNFNVDAQLKVVLPKGYKIRYAAPQYRSQNLEEYRWSGGAYARWVEHVCKGGVGQFEILYAQ
notes: FMO bacteriochlorophyll a protein of Chlorobaculum tepidum TLS; homotrimer, each monomer with eight BChl a; Two trimers (FMO1, FMO2) of the same protein sit on one reaction center in the RC-FMO2 structure; they are one molecule here; also called FMO trimer; FMO1
Turning to B1, in assay [4], the binding result is reported as “binds”.

B2: PscC (cytochrome c subunit) (protein, UniProt O07091 1-206)
chain: MDKNSNGKLIALAVGGAVLMGALFFSVSFLTGYIPAPNHSAILTPLRSFMGWFLLIFCASIIIMGLGKMSSAISDKWFLSFPLSIFVIVMVMFLSLRVYWEKGRTTTVDGKYIRTTAELKEFLNKPAATSDVPPAPAGFDFDAAKKLVDVRCNKCHTLDSVADLFRTKYKKTGQVNLIVKRMQGFPGSGISDDDAKTIGIWLHEKF
Take B2: the binding result in assay [4] is on record as “binds”.
